In US20100248359A1:
Numbering of substitutions follows the chain as printed. No constants are given. Whether binding was seen depends on the method and setting. Some results given as binding are weak or reduced against the parent protein; the word gives no strength.

Chains of the proteins cited; added tags and fusions are not shown. Residues count along the entry.
UniProt P51654, residues 25-358: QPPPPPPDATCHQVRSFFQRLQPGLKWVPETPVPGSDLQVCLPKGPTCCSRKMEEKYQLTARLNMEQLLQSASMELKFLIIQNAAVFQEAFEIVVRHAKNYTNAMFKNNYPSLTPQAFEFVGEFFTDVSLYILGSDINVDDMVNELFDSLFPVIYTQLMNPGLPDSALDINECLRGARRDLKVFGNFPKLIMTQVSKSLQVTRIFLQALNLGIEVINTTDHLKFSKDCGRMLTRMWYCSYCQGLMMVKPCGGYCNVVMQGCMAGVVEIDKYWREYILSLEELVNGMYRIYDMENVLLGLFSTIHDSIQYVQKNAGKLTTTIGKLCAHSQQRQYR

Legend:
[1] = target: secreted form of GPC3 in the culture supernatant of HepG2 (human) (UniProt P51654); assay: immunoprecipitation of HepG2 culture supernatant
[2] = target: secreted form of GPC3 in the culture supernatant of HepG2 (human) (UniProt P51654); assay: immunoprecipitation of the culture supernatant of HepG2, detection of secreted GPC3
[3] = target: secreted form of GPC3 in the culture supernatant of HepG2 (human) (UniProt P51654); assay: sandwich ELISA of HepG2 culture supernatant
[4] = target: secreted form of GPC3 in the culture supernatant of HepG2 (human) (UniProt P51654); assay: sandwich ELISA of the culture supernatant of HepG2; plate-coated capture antibody, biotin-labelled developing antibody
[5] = target: C-terminal fragment of 30 kDa of the soluble form of GPC3 core protein (human) (UniProt P51654); assay: Western blotting (Example 11), told in Example 12
[6] = target: GC-2 (GST fusion of GPC3 Gly510 to Lys563) (human) (UniProt P51654); assay: Western blotting of GST-fusion proteins, reducing SDS-PAGE
[7] = target: GC-1 (GST fusion of GPC3 Ser495 to Lys563) (human) (UniProt P51654); assay: as above
[8] = target: N-terminal fragment of 40 kDa of the soluble form of GPC3 core protein (human) (UniProt P51654); assay: Western blotting (Example 11), told in Example 12
[9] = target: N-terminal fragment of 40 kDa of the soluble form of GPC3 core protein (human) (UniProt P51654); assay: told in the legend of FIG. 4

Measured: binding

B1: L9G11 (antibody, V domains shown)
VH: QVQLQQPGAELVKPGASVKLSCKASGYTFTSYWMHWVKQRPGQGLEWIGTIDPSDSETHYNLQFKDTATLTVDKSSSTAYMQLSSLTSEDSAVYYCIRGAFYSSYSYWAWFAYWGQGTLVTVSA
VL: DIVLTQSPTSLAVSLGQSVTISCRASESVEYYGTSLMQWYQQKPGQPPKLLIYGASNVESGVPARFSGSGSGTDFSLNIHPVEEDDIAMYFCQQSRKVPYTFGSGTKLEIK
binds: [1] | [2]

B2: M6B1 (antibody, V domains shown)
VH: EVQLVESGGDLVKPGGSLKLSCAASGFTFSSYAMSWVRQTPEKRLEWVAAINSNGGTTYYPDTMKDRFTISRDNAKNTLYLQMSSLRSEDSALYYCTRHNGGYENYGWFAYWGQGTLVTVSA
VL: DIQMTQSPSSLSASLGGKVTITCKASQDINKNIIWYQHKPGKGPRLLIWYTSTLQPGIPSRFSGSGSGRDYSFSISNLEPEDIATYYCLQYDNLPRTFGGGTKLEIK
binds: [3] | [1] | [4] | [2]

B3: M1E7 (antibody, human IgG1, kappa, V domains shown)
VH: EVQLQQSGPELVKPGASVKISCKASGYSFTGYYMHWVKQSPEKSLEWIGEINPSTGGTTYNQKFKAKATLTVDKSSSTAYMQLKSLTSEDSAVYYCARRGGLTGTSFFAYWGQGTLVTVSA
VL: DVVMTQTPLSLSVTIGQPASISCKSSQSLLYSNGKTYLNWLQQRPGQAPKHLMYQVSKLDPGIPDRFSGSGSETDFTLKISRVEAEDLGVYYCLQSTYYPLTFGAGTKLELKR
binds: [5] | [6] | [7]

B4: M10D2 (antibody, V domains shown)
VH: QVQLQQPGAELVKPGASVKLSCKASGYTFTSYWMHWVKQRPGQGLEWIGEIDPSDSYTYYNQKFRGKATLTVDKSSNTAYMQLSSLTSEDSAVYYCSRSNLGDGHYRFPAFPYWGQGTLVTVSA
VL: DIVLTQSPATLSVTPGDRVSLSCRASHSISNFLHWYPQKSHESPRLLIKYASQSISGIPSRFSGNGSGTDFTLSINSVETEDFGMYFCQQSNIWSLTFGAGTKLELK
binds: [1] | [2]

B5: M18D4 (antibody, human IgG1, kappa, V domains shown)
VH: EVQLQQSGTVLARPGASVKMSCKASGYTFTGYWMRWVKQRPGQGLEWIGAIYPGNSDTTYNQKFKGKAKLTAVTSVSTAYMELSSLTNEDSAVYYCSRSGDLTGGFAYWGQGTLVTVST
VL: DIVMTQAAFSNPVTLGTSTSISCRSSKSLLHSNGITYLYWYLQKPGQSPQLLIYQMSNLASGVPDRFSSSGSGTDFTLRISRVEAEDVGVYYCAQNLELPYTFGSGTKLEIKR
not listed: [5] | [6] | [7]
binds: all other assays above

B6: M5B9 (antibody, V domains shown)
VH: B5 VH with R35H, T59N, V76A, S91A, Y95H, S97T, F106L, T119A
VL: DIVMTQAAFSNPVTLGTSASISCRSSKSLLHSNGITYLYWFLQKPGQSPQLLIYQMSNLASGVPDRFSSSGSGTDFTLRISRVEAEDVGVYYCAQNLELPYTFGSGTKLEIK
binds: [1] | [2]
